Results are given in words; binding and its absence hold for the method and conditions named. In cells and extracts the contact can be indirect. Some binding calls cover weakened binding; strength is not graded here.
Assays:
[1] = target: HA-TRIM67 (E3 ubiquitin ligase TRIM67) (UniProt Q6ZTA4); test: co-IP; HEK-293 T cells transfected with FLAG3-GMPPB and HA-TRIM67; immunoprecipitation of HA-TRIM67, Western blot for FLAG
[2] = target: 3xFLAG-GMPPB (GDP-mannose pyrophosphorylase B), wild type (human) (UniProt Q9Y5P6); test: co-IP; HEK-293 T cells co-transfected with HA-TRIM67 and FLAG3-GMPPB WT or 3KR; IP with anti-FLAG M2 antibodies coupled to Protein A Sepharose, 4°C 2 h, imidazole lysis buffer (150 mM NaCl, 0.25% Triton X-100); Western blot for HA
[3] = target: 3xFLAG-GMPPB K143/162/195R (human) (UniProt Q9Y5P6); test: as above

The chains behind the UniProt entries cited, without tags or fusion partners. Where a name states a change or a piece, a line headed by the entry shows the natural chain unless it says otherwise. A line that says so, or that is headed by a name, gives the form on record, which may keep a tag or linker.
UniProt Q6ZTA4: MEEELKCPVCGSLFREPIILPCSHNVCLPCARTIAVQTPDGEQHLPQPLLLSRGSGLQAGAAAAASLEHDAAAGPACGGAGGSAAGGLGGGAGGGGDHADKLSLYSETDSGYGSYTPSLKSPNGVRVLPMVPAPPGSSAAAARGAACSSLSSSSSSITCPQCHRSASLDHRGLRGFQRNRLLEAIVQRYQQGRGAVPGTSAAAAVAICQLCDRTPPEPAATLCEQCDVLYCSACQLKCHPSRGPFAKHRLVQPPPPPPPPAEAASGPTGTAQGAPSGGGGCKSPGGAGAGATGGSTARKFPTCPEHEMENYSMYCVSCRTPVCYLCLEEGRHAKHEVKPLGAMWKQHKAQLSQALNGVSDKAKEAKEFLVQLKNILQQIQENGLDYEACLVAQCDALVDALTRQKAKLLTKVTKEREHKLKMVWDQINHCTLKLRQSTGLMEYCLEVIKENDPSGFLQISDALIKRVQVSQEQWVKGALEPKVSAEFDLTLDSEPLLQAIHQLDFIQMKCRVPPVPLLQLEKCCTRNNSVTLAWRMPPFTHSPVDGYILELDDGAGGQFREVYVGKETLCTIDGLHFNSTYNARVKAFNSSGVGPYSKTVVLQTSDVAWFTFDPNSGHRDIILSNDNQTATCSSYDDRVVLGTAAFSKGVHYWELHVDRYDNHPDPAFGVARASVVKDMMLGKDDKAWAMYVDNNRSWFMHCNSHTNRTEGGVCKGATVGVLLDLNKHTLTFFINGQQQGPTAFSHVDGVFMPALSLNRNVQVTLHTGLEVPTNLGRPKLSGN
UniProt Q9Y5P6: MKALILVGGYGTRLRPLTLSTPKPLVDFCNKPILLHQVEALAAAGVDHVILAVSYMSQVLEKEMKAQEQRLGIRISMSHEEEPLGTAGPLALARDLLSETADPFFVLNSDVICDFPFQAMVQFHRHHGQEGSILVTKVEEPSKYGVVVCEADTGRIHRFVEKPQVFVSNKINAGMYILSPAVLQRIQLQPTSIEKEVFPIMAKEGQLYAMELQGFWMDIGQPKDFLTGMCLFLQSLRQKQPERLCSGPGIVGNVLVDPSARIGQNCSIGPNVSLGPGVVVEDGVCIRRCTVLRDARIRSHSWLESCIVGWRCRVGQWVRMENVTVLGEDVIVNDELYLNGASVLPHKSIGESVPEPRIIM
3xFLAG-GMPPB K143/162/195R (Q9Y5P6, form named): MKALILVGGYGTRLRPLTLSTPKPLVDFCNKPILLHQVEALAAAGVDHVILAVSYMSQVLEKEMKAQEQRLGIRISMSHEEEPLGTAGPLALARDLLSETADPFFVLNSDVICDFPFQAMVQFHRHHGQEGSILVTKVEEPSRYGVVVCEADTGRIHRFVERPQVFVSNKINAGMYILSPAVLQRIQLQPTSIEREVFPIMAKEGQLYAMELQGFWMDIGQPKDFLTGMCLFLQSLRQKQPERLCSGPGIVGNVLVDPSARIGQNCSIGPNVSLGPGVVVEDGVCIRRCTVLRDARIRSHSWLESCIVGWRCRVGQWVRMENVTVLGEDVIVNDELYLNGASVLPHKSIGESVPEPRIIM

Substance: 3xFLAG-GMPPB (GDP-mannose pyrophosphorylase B), wild type (from UniProt Q9Y5P6 1-360) (enzyme)
- binding [1]: binds

Substance: HA-TRIM67 (E3 ubiquitin ligase TRIM67) (from UniProt Q6ZTA4 1-783) (enzyme)
- binding [2]: binds
- binding [3]: binds
